Measured data: PubChem BioAssay AID1259424 (University of Nebraska Medical Center, 2018)
Screen: 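Seek colon cancer survival genes behaving like KSR1, using a six-gene signature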 (primary screen). System: human HCT116 colon cancer cells. Reagents: siRNA pool against human genes, 50 nM. Detection: 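Six signature mRNAs by branched-DNA multiplex assay, scaled to two housekeeping genes and non-targeting median, log2; matched to mean KSR1 knockdown profile by Pearson correlation and euclidean distance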. Direction: mean correlation with KSR1 profile: higher = expression change more like KSR1 knockdown; mean distance from KSR1 profile: higher = expression change less like KSR1 knockdown.
Here is an unselected part of about 14,000 reagents. 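Higher correlation or smaller distance means closer resemblance to KSR1 loss; control wells, including KSR1 knockdowns, recur on many plates.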 Further read-outs or replicates are left out here. The record does not give: the time to read-out.

With knock-down of NUP42 (nucleoporin 42) the results were mean correlation with KSR1 profile 0.427; mean distance from KSR1 profile 1.92.
TRIM37 (tripartite motif containing 37) scored mean correlation with KSR1 profile -0.122; mean distance from KSR1 profile 1.16.
FRMD4A (FERM domain containing 4A) scored mean correlation with KSR1 profile -0.0744; mean distance from KSR1 profile 2.33.
For SMARCD2 (SWI/SNF related BAF chromatin remodeling complex subunit D2) the deposit lists mean correlation with KSR1 profile -0.299; mean distance from KSR1 profile 2.18.
For LETM1, the entry reads mean correlation with KSR1 profile -0.339; mean distance from KSR1 profile 1.9.
Depletion of CDX4 (caudal type homeobox 4) came out at: mean correlation with KSR1 profile -0.673; mean distance from KSR1 profile 2.72.
Silencing of PMCH (pro-melanin concentrating hormone) gave: mean correlation with KSR1 profile 0.209; mean distance from KSR1 profile 2.21.
For MAGEA6 (MAGE family member A6) the deposit lists mean correlation with KSR1 profile 0.0184; mean distance from KSR1 profile 1.92.
TYK2 (tyrosine kinase 2) scored mean correlation with KSR1 profile 0.251; mean distance from KSR1 profile 4.97.
For TRH (thyrotropin releasing hormone), the entry reads mean correlation with KSR1 profile 0.0709; mean distance from KSR1 profile 1.34.
Against CTSC (cathepsin C), the values are mean correlation with KSR1 profile -0.00312; mean distance from KSR1 profile 1.66.
Against RPRD2 (regulation of nuclear pre-mRNA domain containing 2), the values are mean correlation with KSR1 profile 0.253; mean distance from KSR1 profile 2.64.
ADCY4 (adenylate cyclase 4) scored mean correlation with KSR1 profile -0.458; mean distance from KSR1 profile 1.78.
With knock-down of RHOU (ras homolog family member U), the screen gave mean correlation with KSR1 profile -0.0434; mean distance from KSR1 profile 1.88.
With knock-down of ESS2 (ess-2 spliceosome associated protein), the record shows mean correlation with KSR1 profile 0.38; mean distance from KSR1 profile 3.89.
Against ASTN2 (astrotactin 2), the values are mean correlation with KSR1 profile -0.342; mean distance from KSR1 profile 3.59.
Against UBA52 (ubiquitin A-52 residue ribosomal protein fusion product 1), the entry reads mean correlation with KSR1 profile -0.321; mean distance from KSR1 profile 2.49.
For TFPI (tissue factor pathway inhibitor), the values are mean correlation with KSR1 profile -0.241; mean distance from KSR1 profile 1.6.
Against ETFB (electron transfer flavoprotein subunit beta), the entry reads mean correlation with KSR1 profile 0.207; mean distance from KSR1 profile 1.36.

Just “mean distance from KSR1 profile” (2 entries from above):
TRH (thyrotropin releasing hormone) = 1.34
CTSC (cathepsin C) = 1.66
